# Screening data, single-dose tests

Chains of the proteins cited; added tags and fusions are not shown.
UniProt P9WFT3, whole entry: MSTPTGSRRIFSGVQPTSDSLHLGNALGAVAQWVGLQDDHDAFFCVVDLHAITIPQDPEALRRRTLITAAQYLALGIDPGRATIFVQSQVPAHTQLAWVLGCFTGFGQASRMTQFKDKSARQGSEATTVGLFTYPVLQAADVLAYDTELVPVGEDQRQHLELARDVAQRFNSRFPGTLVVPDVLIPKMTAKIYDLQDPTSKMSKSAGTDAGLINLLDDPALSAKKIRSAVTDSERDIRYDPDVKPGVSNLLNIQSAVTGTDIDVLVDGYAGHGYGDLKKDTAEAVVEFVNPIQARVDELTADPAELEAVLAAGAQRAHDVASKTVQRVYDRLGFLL
UniProt I6X8D2, whole entry: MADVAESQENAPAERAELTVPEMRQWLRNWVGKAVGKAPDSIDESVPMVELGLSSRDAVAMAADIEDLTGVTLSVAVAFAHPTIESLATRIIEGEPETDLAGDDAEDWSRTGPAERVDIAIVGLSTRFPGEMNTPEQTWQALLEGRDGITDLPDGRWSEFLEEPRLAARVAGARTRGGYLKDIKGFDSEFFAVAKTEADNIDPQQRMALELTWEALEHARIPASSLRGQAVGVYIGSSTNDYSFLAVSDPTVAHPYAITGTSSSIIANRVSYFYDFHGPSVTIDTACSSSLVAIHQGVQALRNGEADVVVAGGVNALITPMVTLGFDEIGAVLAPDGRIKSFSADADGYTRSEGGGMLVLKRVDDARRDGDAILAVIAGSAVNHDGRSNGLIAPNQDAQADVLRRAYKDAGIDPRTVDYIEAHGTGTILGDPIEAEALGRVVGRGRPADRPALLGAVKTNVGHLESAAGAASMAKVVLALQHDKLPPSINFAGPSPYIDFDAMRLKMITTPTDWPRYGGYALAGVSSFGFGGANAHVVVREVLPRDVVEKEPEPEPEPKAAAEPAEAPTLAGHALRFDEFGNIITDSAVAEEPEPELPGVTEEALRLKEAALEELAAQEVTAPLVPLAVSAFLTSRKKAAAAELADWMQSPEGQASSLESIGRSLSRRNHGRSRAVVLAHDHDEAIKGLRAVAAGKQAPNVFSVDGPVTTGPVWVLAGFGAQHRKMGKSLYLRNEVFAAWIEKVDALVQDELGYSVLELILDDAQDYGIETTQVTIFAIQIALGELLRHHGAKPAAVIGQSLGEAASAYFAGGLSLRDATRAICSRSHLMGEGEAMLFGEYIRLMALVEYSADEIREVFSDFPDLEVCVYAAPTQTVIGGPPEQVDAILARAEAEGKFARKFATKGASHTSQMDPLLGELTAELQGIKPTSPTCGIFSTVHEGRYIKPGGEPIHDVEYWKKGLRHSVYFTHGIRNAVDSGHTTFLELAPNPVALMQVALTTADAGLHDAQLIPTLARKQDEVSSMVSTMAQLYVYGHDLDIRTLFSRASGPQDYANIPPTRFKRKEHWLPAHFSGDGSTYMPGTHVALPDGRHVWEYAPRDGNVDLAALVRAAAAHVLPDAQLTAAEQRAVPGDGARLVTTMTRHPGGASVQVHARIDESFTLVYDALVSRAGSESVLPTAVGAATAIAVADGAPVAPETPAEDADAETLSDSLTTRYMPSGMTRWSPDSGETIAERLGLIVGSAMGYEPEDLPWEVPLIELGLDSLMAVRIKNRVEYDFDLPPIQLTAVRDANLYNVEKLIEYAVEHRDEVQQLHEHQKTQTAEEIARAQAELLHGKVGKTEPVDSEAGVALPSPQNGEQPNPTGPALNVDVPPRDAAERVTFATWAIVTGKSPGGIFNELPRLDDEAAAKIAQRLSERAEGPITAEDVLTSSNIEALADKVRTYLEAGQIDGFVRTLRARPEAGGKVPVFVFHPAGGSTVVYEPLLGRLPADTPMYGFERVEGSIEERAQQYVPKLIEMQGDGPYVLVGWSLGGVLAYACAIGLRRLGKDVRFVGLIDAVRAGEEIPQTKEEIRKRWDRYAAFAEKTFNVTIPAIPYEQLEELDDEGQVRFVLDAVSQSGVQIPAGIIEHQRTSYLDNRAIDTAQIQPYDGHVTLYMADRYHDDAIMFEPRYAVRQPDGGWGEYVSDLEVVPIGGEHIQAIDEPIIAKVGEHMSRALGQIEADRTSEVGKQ

Measurements from “University of Dundee, Small-Polar-MMV Screening Library” (2021), ChEMBL document CHEMBL3988442.

A: 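Enzyme assay of tryptophanyl-tRNA synthetase; the read-out is not stated. Target: Tryptophan-tRNA ligase, Mycobacterium tuberculosis (UniProt P9WFT3). Concentration: 10 µM. Direction is not recorded; retested compounds ran higher, which suggests that high means inhibition. Of about 65,000 compounds tested this way, about 64 (0.098%) reached 50% or more in at least one test.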
B: 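Polyketide synthase Pks13, Mycobacterium tuberculosis (UniProt I6X8D2). Enzyme assay of the thioesterase domain of polyketide synthase 13; the read-out is not stated. Tested at 30 µM. The record gives no direction; the compounds picked for IC50 retests had high values, so higher reads as stronger inhibition. Size under these conditions: about 67,000 compounds, about 300 of them at 50% or above in at least one test.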

Each number is a percent effect as filed.
The controls that fix the scale are not given in the record; negative values are as filed.
The compounds are a random part of those screened.
A dash means the value is not listed here; it may have been measured.

Compound	A	B
CC(=O)N1CCCC1c1cccc(C)c1C (stereo not given)	-4.591	-10.35
COc1ccc(OC)c(-c2csc(-c3cccc(C(=O)O)c3)n2)c1	-4.219	-24.4
Cc1noc(C)c1CCCNC(=O)Nc1ccc2c(c1)CC(=O)N2	4.139	2.633
O=C(O)C1(n2ccc(-c3ccco3)n2)CCN(Cc2cccs2)CC1	2.415	16.84
O=C(N[C@@H]1CN(Cc2ccoc2)C[C@@H]2CCCO[C@@H]21)C1CCC1	-	-21.16
CCn1cnnc1CNC(=O)c1cc(F)ccc1OC	1.022	-17.21
CCC(O)CN(c1ccccc1)S(=O)(=O)c1cnc(C)s1 (stereo not given)	1.722	-11.58
O=C(O)c1ccnc(-c2ccnc(COc3ccc(Cl)cc3)n2)c1	-0.9029	-11.23
O=C(c1ccc(F)cc1F)N1CCN(C(=O)C2CCCCC2)CC1	2.091	-24.9
CC(C)c1nc(C2CCCN2CC(=O)Nc2ccc(Cl)cn2)no1 (stereo not given)	1.098	2.471
COCC(=O)NC1CC2(CCN(CCO)CC2)c2ccccc21 (stereo not given)	-	-16.78
c1ccc(CO[C@@H]2CO[C@@]3(CCN(Cc4ccccn4)C3)C2)nc1	1.206	-35.03
Nc1cc(-c2nccnc2N2CCCC2)c2cc[nH]c2n1	6.194	27.33
CS(=O)(=O)N1CCC2(CC1)CN(CCn1cccn1)C(=O)CO2	4.725	-
CCN(C)S(=O)(=O)NCC1CCN(Cc2ccccc2C)CC1	0.7766	-14.77
Cc1ccc(C(F)(F)F)cc1NC(=O)C1CCCN1 (stereo not given)	-1.768	7.584
COc1ccc(OCc2cc(C(=O)N3CCSCC3)n[nH]2)c(Cl)c1	-0.6595	-0.5355
O=C(NCc1ccco1)N1CCCCC1c1nc(-c2ccncc2)no1 (stereo not given)	-3.215	-1.931
CC(=O)N1[C@H](CN(C)C)C[C@@H]2CN(C(=O)c3cncc(C)c3)CC[C@@H]21	-7.413	-24.69
O=C(c1ccccc1)C1CCN(C(=O)CC2COCCN2)CC1 (stereo not given)	6.166	1.98
Fc1ccc(CN2CCCn3nnc(COCC4CC4)c3C2)cc1	-2.654	-10.7
CC1CCc2nc(NS(=O)(=O)c3cnn(C)c3)sc2C1 (stereo not given)	0.9032	-10.42
O=C(COc1coc(CN2CCCC2)cc1=O)Nc1ccc(Cl)c(Cl)c1	4.272	-5.232
CSCc1noc(CNC(=O)c2cc(C)c(C)[nH]c2=O)n1	8.003	-12.91
Cc1cc(C2CCCN2C(=O)COc2ccc(CC#N)cc2)no1 (stereo not given)	-8.497	5.227
CCc1ocnc1C(=O)N1CCC(C2CCN(c3ncccn3)CC2)C1 (stereo not given)	1.41	-9.213
O=C(NC[C@H]1OC[C@@H](NCc2ccccc2)[C@@H]1O)Nc1ccccc1	-1.442	-36.86
COCC1c2nnn(C)c2CCN1C(=O)CCc1cccc(OC)c1 (stereo not given)	-	-9.503
O=C1c2cccnc2OC(CN2CCOCC2)CN1Cc1cccs1 (stereo not given)	-	4.217
O=C(C1=CCCC1)N1CCC[C@]2(C[C@@H](OCc3ccncc3)CO2)C1	0.3148	-7.864
CCCC(=O)N1CCC(C(=O)NCCN2CCC(C)CC2)CC1	-4.321	36.72
COc1ccc(NC(C)C(=O)NCCc2cccs2)cc1F (stereo not given)	-1.639	-19.24
O=C(c1cc(F)cc(Cl)c1)N1C[C@@H]2CC[C@H](C1)N(Cc1ccccc1)C2	2.65	-13.88
Cc1ccc(C(=O)N2CCC3(CC2)c2ccccc2[C@@H](N)[C@@H]3O)c(=O)[nH]1	0.3298	70
CN(C)S(=O)(=O)NC1CCCc2c1cnn2-c1ccc(C(C)(C)C)cc1 (stereo not given)	-4.49	-30.42
CS(=O)(=O)N1Cc2nccn2CC(CN2CCCC2)C1 (stereo not given)	-4.333	-6.387
CCCN1CCC(c2nc3ccc(NCc4ccccc4)cn3n2)CC1	-3.516	-10.59
CCc1sc(-c2nnc(CNCCn3cccn3)o2)cc1C	3.936	-38.76
CS(=O)(=O)NCC1CCCN(C(=O)Nc2cccnc2N2CCCC2)C1 (stereo not given)	-3.708	-7.745
Cc1nc(C)n(CC2CN(Cc3nc4ccccc4n3C)CCO2)n1 (stereo not given)	-6.423	-3.787
O=C(O)c1ccc2c(c1)C1(CCCCC1)CN2C(=O)c1ccnnc1	2.766	-26.43
CCOC(=O)[C@@H]1[C@@H](O)C(=O)N(C)C12CCN(C(=O)c1ccco1)CC2	-	14.55
Cc1cc(CN(C)C(=O)CN2CCCC2=O)no1	-0.3236	-5.145
Cc1ccc(N2CCN(c3ccccc3C)CC2C)nn1 (stereo not given)	-1.005	-11.14
CN(C)c1nccc(NC(=O)c2ccncc2)n1	-4.871	-5.658
CN1CC[C@H]2CN(C(=O)COCc3nc4cc(F)ccc4[nH]3)C[C@H]21	-2.333	-6.353
CC(C(=O)NCCOc1ccc2c(c1)OCO2)n1cncn1 (stereo not given)	5.114	-36.9
Cc1cccc(-c2noc(CN3CCOCC3C)n2)c1 (stereo not given)	-1.573	-
CNC(=O)CC1CC2(CCNCC2)c2cc(F)ccc21 (stereo not given)	-	-3.921
O=C(O)c1cnc(N2CCCC2)nc1COc1ccc(F)cc1	1.052	-6.828
O=C(c1c(F)cc(Br)cc1F)N1CCc2cnccc21	-3.608	-3.602
CCc1ccc(NC(=O)CCN2CC(n3nc(C)cc3C)C2)cc1	3.785	-4.553
CC(C)CC(NC(=O)c1cc(C2CC2)n[nH]1)c1ncnn1C (stereo not given)	-5.325	-6.061
CCOc1ncccc1CNC(=O)Nc1ccc(N(C)C)nc1	4.916	17.75
Cc1ccc(C)c(OC2CCN(C(=O)CNc3ccccc3Cl)CC2)c1	1.961	73.12
Cc1noc(C)c1CN1CC[C@@H](OCC2CC2)[C@@H](Cc2ccccc2)C1	-0.7049	-49.81
CCc1cn[nH]c1C1CCN(c2cc(C)c3cccc(OC)c3n2)CC1	-1.805	-24.57
O=C(NC1CCCC1)c1cc(C2CCCNC2)n[nH]1 (stereo not given)	-3.825	3.828
CN1CC2(CCN(S(=O)(=O)C3CC3)CC2)c2ccccc21	-1.187	-8.521

For reference, 4 entries once more:

{"compound": "Cc1ccc(N2CCN(c3ccccc3C)CC2C)nn1", "stereo": "stereo not given", "A": -1.005, "B": -11.14}
{"compound": "c1ccc(CO[C@@H]2CO[C@@]3(CCN(Cc4ccccn4)C3)C2)nc1", "A": 1.206, "B": -35.03}
{"compound": "CCC(O)CN(c1ccccc1)S(=O)(=O)c1cnc(C)s1", "stereo": "stereo not given", "A": 1.722, "B": -11.58}
{"compound": "CCN(C)S(=O)(=O)NCC1CCN(Cc2ccccc2C)CC1", "A": 0.7766, "B": -14.77}